{"sequences": {"note": "The chains behind the UniProt entries cited, without tags or fusion partners. Where a name states a change or a piece, a line headed by the entry shows the natural chain unless it says otherwise. Residues count along the entry.", "UniProt P02769, residues 25-607": "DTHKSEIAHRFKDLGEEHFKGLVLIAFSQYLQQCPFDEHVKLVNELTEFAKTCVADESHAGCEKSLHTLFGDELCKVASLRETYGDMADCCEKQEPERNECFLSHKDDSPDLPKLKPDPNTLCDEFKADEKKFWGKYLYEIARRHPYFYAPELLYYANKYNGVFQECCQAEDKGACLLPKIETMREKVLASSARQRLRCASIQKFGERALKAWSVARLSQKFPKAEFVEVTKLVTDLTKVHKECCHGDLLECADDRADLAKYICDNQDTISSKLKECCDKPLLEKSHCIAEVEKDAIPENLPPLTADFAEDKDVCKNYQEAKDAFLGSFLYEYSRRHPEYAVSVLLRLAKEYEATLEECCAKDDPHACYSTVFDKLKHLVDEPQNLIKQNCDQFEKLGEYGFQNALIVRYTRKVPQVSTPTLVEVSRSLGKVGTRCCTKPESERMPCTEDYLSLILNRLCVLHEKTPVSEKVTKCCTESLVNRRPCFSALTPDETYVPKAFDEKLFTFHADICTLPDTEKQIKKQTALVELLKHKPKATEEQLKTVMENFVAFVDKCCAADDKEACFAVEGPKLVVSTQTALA", "UniProt P28799": "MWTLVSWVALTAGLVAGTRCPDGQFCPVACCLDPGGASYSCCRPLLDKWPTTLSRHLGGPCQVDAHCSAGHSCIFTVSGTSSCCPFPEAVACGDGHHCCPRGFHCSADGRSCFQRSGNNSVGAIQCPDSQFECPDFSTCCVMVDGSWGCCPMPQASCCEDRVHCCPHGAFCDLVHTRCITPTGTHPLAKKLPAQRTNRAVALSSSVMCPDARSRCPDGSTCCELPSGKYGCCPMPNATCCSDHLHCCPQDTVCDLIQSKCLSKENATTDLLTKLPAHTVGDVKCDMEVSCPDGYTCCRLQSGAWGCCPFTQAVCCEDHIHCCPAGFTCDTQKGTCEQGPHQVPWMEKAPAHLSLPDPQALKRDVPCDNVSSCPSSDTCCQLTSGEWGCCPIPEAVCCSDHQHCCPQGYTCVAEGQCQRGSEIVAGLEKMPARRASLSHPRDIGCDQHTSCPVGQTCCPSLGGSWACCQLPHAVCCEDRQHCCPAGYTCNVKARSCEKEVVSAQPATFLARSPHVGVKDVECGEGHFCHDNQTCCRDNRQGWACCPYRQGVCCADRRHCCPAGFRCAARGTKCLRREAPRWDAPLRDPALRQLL"}, "source": "patent US20170049855A1", "molecular_target": "BSA (bovine) (UniProt P02769)", "assay": "solid phase binding assay: PGRN coated at the concentration on the x axis (µg/ml), biotin-labeled BSA added, streptavidin-HRP, OD 450 nm", "note": "These are yes or no findings as the source states them, for the method shown.", "data": [{"substance": "Recombinant His-tag PGRN protein (recombinant human progranulin) (from UniProt P28799 18-593) (ligand)", "values": [{"measurement": "binding", "result": "no binding (tested: 5 µg/ml)"}]}]}
